Results are given in words; binding and its absence hold for the method and conditions named. Some entries that bind do so weakly or less than the wild type.
Biological target: T1, CBP80/CBP20 complex (human, UniProt Q09161 20-790; P52298 1-156, limits assumed)
T1 construct: Used in the fluorescence polarization assays; In the crystal it also carried the cap analogue (m7GpppG / m7GpppA); also called CBC complex; CBC
T1 sequence (looked up) 1: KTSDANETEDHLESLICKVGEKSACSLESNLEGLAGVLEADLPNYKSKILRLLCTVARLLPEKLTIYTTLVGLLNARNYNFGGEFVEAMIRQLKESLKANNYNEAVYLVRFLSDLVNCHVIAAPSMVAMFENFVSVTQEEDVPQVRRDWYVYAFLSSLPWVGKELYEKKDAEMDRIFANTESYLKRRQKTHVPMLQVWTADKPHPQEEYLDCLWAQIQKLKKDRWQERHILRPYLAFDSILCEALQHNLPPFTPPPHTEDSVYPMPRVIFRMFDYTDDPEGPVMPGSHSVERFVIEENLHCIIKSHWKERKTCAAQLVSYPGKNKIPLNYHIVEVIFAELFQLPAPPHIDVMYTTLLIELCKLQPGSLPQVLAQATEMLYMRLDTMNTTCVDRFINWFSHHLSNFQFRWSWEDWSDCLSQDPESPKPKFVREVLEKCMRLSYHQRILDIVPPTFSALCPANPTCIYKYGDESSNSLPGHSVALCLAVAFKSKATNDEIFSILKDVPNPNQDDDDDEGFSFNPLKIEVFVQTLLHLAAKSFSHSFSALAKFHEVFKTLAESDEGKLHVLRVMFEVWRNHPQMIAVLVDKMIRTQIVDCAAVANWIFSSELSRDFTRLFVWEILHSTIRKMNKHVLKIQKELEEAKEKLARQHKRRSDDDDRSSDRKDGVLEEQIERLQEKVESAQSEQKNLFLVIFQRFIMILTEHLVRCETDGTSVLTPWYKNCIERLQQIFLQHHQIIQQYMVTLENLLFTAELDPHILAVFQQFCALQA
T1 sequence (looked up) 2: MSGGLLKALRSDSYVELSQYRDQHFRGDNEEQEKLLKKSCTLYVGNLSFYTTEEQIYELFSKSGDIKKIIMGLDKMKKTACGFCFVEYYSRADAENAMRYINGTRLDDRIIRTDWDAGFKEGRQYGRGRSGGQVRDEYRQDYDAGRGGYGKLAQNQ
Assay: FP competition assay

Binder | binding
SLDFDSLLKEAQRSLRR (N-terminal acetyl; C-terminal amide) [PGC1α-Cterm (Ac-…-NH2)] | binds
SLDFDDLLKQAQKNLRR (N-terminal acetyl; C-terminal amide) [PRC-Cterm (Ac-…-NH2)] | binds
MAFDSLLKNAAAS (N-terminal acetyl; C-terminal amide) [PGC1β-13 (Ac-…-NH2)] | binds
MAFDSLLKNAAQS (N-terminal acetyl; C-terminal amide) [PGC1β-14 (Ac-…-NH2)] | binds
MAFDSLLKAAQQS (N-terminal acetyl; C-terminal amide) [PGC1β-15 (Ac-…-NH2)] | binds
MAFDSMLKAAQQS (N-terminal acetyl; C-terminal amide) [PGC1β-17 (Ac-…-NH2)] | binds

Reference: patent US20180362587A1, “Compositions and Methods for Inhibiting CBP80 Binding to PGC1 Family of Co-Activators” (University of Rochester, priority 2015, published 2018)
